The source of these data is patent US20220298238A1.

For test [1], the target named is T1, P2X4 receptor peptide, amino acids 301-313 of rat P2X4 (…), N-terminal biotin (rat).
T1 sequence (peptide, N-terminal biotin tag): RDLAGKEQRTLTK
The test is described as follows: indirect ELISA on P2X4 peptide. A general note: An ELISA detects its analyte on a solid surface through an enzyme-linked reagent.

Test [2] deals with T2, P2X4 receptor on mouse trigeminal peripheral nerve cells (TG) (mouse) (UniProt Q9JJX6).
T2 sequence (looked up): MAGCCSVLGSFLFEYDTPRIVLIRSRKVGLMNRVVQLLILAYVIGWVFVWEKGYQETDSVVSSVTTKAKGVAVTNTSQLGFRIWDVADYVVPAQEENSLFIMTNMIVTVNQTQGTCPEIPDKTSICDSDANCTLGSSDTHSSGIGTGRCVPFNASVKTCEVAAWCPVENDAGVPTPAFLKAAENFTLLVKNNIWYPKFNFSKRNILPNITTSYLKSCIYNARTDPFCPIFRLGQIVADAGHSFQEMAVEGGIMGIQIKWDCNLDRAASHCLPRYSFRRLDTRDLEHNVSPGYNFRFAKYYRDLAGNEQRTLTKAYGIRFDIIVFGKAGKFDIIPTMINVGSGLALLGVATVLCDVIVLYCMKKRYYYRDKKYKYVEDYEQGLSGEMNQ
Put plainly: adsorption block of immunostaining on isolated mouse trigeminal nerve cells.

The target of test [3] is T1, P2X4 receptor peptide, amino acids 301-313 of rat P2X4 (…), N-terminal biotin (rat). The test is described as follows: FIG. 2B binding assay (indirect ELISA).

No constants are given. Whether binding was seen depends on the method and setting. Some binding calls cover weakened binding; strength is not graded here.

B1: anti-P2X4 scFv12 (scFv)
scFv: MADVKLQESGPGLVKPSQSLSLTCSVTGYSITSGYYWNWIRQFPGNKLEWMGYISYDGSNNYNPSLKNRISITRDTSKNQFFLKLNSVTTEDTATYYCARSDYDLYYYAMDYWGQGTSVTVSSAKTTPPSGGGGSGGGGSGGGGGSGGGGSDIVMTQSPATLSVTPGDRVSLSCRASQSISDYLHWYQQKSHESPRLLIKYASQSISGIPSRFSGSGSGSDFTLSINSVEPEDVGVYYCQNGHSFPLTFGSGTKLEIKRADAAALEHHHHHH
As for B1, the binding entry in test [1], in test [2] and in test [3] was “binds” throughout.

B2: anti-P2X4 scFv95 (scFv)
scFv: MAEVKLVESGGGLVQPGGSLRLSCATSGFTFTDYYMSWVRQPPGKALEWLGFIRNKANGYTTEYSASVKGRFTISRDNSQSILYLQMNTLRAEDSATYYCARWEGDLLYAMDYWGQGTSVTVSSGGGGSGGGGSGGGGGSGGGGSDIQMTQTTSSLSASLGDRVTISCSASQGISNYLNWYQQKPDGTVKLLIYYTSSLHSGVPSRFSGSGSGTDYSLTISNLEPEDIATYYCQQYSKLPWTFGGGTKLEIKRADAAALEHHHHHH
With B2, the binding result in test [1] and in test [3] was “binds” each time.
